Assay results reported in publication PMC11898665.
Results are given in words; binding and its absence hold for the method and conditions named. Some results given as binding are weak or reduced against the parent protein; the word gives no strength.

The chains behind the UniProt entries cited, without tags or fusion partners.
UniProt P17820: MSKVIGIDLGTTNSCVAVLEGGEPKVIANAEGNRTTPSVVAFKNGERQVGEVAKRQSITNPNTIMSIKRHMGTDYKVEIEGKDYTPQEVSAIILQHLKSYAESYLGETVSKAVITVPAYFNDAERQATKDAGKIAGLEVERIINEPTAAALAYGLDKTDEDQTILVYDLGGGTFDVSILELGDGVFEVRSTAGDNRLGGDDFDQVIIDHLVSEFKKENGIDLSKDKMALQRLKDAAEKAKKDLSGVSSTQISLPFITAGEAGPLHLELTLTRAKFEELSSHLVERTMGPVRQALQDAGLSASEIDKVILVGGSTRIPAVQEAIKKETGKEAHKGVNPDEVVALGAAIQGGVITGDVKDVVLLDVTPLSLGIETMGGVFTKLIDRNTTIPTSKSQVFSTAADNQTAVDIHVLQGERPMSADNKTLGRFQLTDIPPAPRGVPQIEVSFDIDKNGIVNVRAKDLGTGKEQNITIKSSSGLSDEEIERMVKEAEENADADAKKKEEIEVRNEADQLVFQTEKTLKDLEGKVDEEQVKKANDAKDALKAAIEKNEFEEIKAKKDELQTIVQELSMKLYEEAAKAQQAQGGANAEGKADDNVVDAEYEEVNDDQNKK

B1: SpoIVCA (protein, UniProt P17867 1-500)
chain: MIAIYVRVSTEEQAIKGSSIDSQIEACIKKAGTKDVLKYADEGFSGELLERPALNRLREDASKGLISQVICYDPDRLSRKLMNQLIIDDELRKRNIPLIFVNGEYANSPEGQLFFAMRGAISEFEKAKIKERTSSGRLQKMKKGMIIKDSKLYGYKFVKEKRTLEILEEEAKIIRMIFNYFTDHKSPFFGRVNGIALHLTQMGVKTKKGAKVWHRQVVRQILMNSSYKGEHRQYKYDTEGSYVSKQAGNKSIIKIRPEEEQITVTIPAIVPAEQWDYAQELLGQSKRKHLSISPHNYLLSGLVRCGKCGNTMTGKKRKSHGKDYYVYTCRKNYSGAKDRGCGKEMSENKLNRHVWGEIFKFITNPQKYVSFKEAEQSNHLSDELELIEKEIEKTKKGRKRLLTLISLSDDDDLDIDEIKAQIIELQKKQNQLTEKCNEIQSKMKVLDDTSSSENALKRAIDYFQSIGADNLTLEDKKTIVNFIVKEVTIVDSDTIYIETY
B2: NupG (protein, UniProt P42312 1-397)
chain: MYFLLNLVGLIVIMAVVFLCSPQKKKIKWRPIITLIVLELLITWFMLGTKVGSWAIGKIGDFFTWLIACASDGIAFAFPSVMANETVDFFFSALLPIIFIVTFFDILTYFGILPWLIDKIGWVISKASRLPKLESFFSIQMMFLGNTEALAVIRQQLTVLSNNRLLTFGLMSMSSISGSIIGSYLSMVPATYVFTAIPLNCLNALIIANLLNPVHVPEDEDIIYTPPKEEKKDFFSTISNSMLVGMNMVIVILAMVIGYVALTSAVNGILGVFVHGLTIQTIFAYLFSPFAFLLGLPVHDAMYVAQLMGMKLATNEFVAMLDLKNNLKSLPPHTVAVATTFLTSFANFSTVGMIYGTYNSILDGEKSTVIGRNVWKLLVSGIAVSLLSAAIVGLFVW

Target: DnaK (B. subtilis) (UniProt P17820)
Experiment: two-hybrid; yeast two-hybrid screen with DnaK as bait; stringent screening conditions (supplemental methods)

Binder | binding
B1 | binds
B2 | binds
